Reference: patent US7070814B2, “Bioavailability / bioefficacy enhancing activity of Cuminum cyminum and extracts and fractions thereof” (Council of Scientific and Industrial Research, priority 2002, dated 2006)

Assay: Bioavailability enhancement: drug, nutraceutical or herbal product given alone or with bioenhancer (BE) to fasted rats, blood (plasma) levels 0-24 hrs by HPLC
Procedure: • 1. Bioenhancers (BEs) from Cuminum cyminum means either the aqueous, or 50% alcoholic extract or fractions No. 1 to 5. • 2. Piperine as Bioenhancer (BE) from Piper species means the molecule with characteristics as described in Example 2 of this invention. • 3.
• (i) Bioenhancer (BE) from Cuminum cyminum • Extract: 16 mg/kg body weight (Rats) • Fraction No. 1: 02–5 mg/kg body weight (rats) • Fraction No.2: 13-mg/kg body weight (Rats) • Fraction No. 3: 8 mg/kg body weight (Rats) • Fraction No. 4: 5 mg/kg body weight (Rats) • Fraction No. 5: 2.5 to 5 mg/kg body weight (Rats) • (ii) Piperine: 8 mg/kg body weight (Rats) As an example of an experiment in Rat (fasted): • Drug: Rifampicin, 40 mg/kg • BE (Cuminum cyminum): Doses as in Example No. 5 above. • BE (Cuminum cyminum)+Piperine: Doses as in Example No. 5 above.
Experimental procedure: Drug alone/or in combination with BE was administered to rats as per the following design: • Group 1: Control • Group 2: Rifampicin alone • Group 3: BE alone • Group 4: Rifampicin+BE (Cuminum cyminum) • Group 5: Rifampicin+BE (C. cyminum+piperine)
Blood from control/treated animals at predetermined intervals (0–24 hrs) (Total 14 timings). […] The concentration of rifampicin in the samples was determined using HPLC (Model: Shimadzu 1080 BP); PDA detector; Mobile phase: phosphate buffer: acetonitile (40:60); Flow rate 1.0 ml/min. […]

CCn1cc(C(=O)O)c(=O)c2cc(F)c(N3CCN(C)CC3)cc21 [P-floxacin, Pefloxacin]
% Enhancement in bioavailability, BE from Cuminum cyminum (drug + BE from Cuminum cyminum (extract 16 mg/kg or fraction, rats) vs drug alone): 47% | % Enhancement in bioavailability, Piperine as BE (drug + piperine (8 mg/kg, rats) vs drug alone): 51%
